{
  "source": "PubChem BioAssay AID485298",
  "about": "(National Center for Advancing Translational Sciences (NCATS), 2010)",
  "note": "Hit rate of the full screen: of about 320,000 compounds, about 740 (0.23%) were called active. The shares of active, inactive and inconclusive entries below differ from those in the screen. The call rests on the fitted dose curve; in most records, active means well fitted activation curve with a large enough effect; inconclusive means small, poorly fitted or top-dose-only effect; inactive means no such curve, though single readings can be large or run the other way. Where the call is inconclusive, the potency comes from a doubtful curve fit. Potency means the concentration at half of the fitted maximal effect.",
  "data": [
    {"assay": "qHTS Assay for Small Molecule Inhibitors of Mitochondrial Division or Activators of Mitochondrial Fusion; further: nearly all actives have a fitted effect of over 45% in size; on growth rescue (activation): % of control where 0% means no effect", "conditions": "S. cerevisiae fusion-defective mutant growth rescue, CellTiterGlo 48 h; growth rescue (activation): at 46.1 µM (top of the series) unless noted", "procedure,_shortened": "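Temperature-sensitive fusion-defective S. cerevisiae (e.g. fzo1-1, mgm1-5) were grown with compound in YPEG medium (3% ethanol, 3% glycerol) for 48 hours at 37C. Growth rescue was measured as viability by CellTiterGlo luminescence after 10 minutes at ambient.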", "values": [
      {"smiles": "COc1cccc(N2CCN(CC(=O)Nc3ccccc3C(=O)NCCc3ccccc3)CC2)c1", "Potency": "inconclusive: 20 µM [activator, single point]"},
      {"smiles": "COc1ccc(-c2cc3onc(-c4c(Cl)cccc4Cl)c3c(=O)n2C)cc1", "Potency": "inconclusive: 15.8 µM [activator, single point]"},
      {"smiles": "O=C(CN1C(=O)CCSc2ccccc21)Nc1ccc2c(c1)OCO2", "growth rescue (activation)": "inactive: 4.79%"},
      {"smiles": "O=C(Nc1cccc(-c2nnc(-c3ccccc3)o2)c1)C1CCCO1", "note": "(centres undefined)", "Potency": "inconclusive: 6.31 µM [activator, single point]"},
      {"smiles": "C=Cc1ccc(CN2CCCN(Cc3ccc(F)cc3)S2(=O)=O)cc1", "growth rescue (activation)": "inactive: -14.2%"},
      {"smiles": "CSc1cccc(NS(=O)(=O)c2cc(Br)cnc2N)c1", "Potency": "inconclusive: 35.5 µM [activator, single point]"},
      {"smiles": "O=C(O)/C=C\\c1ccccc1Oc1ccc(F)cc1", "Potency": "inconclusive: 35.5 µM [activator, single point]"},
      {"smiles": "CCCNc1nc(-c2ccccc2)c(C(=O)OCC)cc1C#N", "Potency": "inconclusive: 15.8 µM [activator, single point]"},
      {"smiles": "O=C(c1ccco1)N1CCN(c2nc(C3CC3)nc3c2nnn3Cc2ccccc2Cl)CC1", "Potency": "inconclusive: 11.2 µM [activator, partial curve]"},
      {"smiles": "COc1ccccc1N1CCN(C(=O)C2CCCCN2S(=O)(=O)c2ccc(C)cc2)CC1", "note": "(centres undefined)", "growth rescue (activation)": "inactive: -1.21%"},
      {"smiles": "Cc1ccc(S(=O)(=O)N2CCCN(c3nc4cc(C)ccc4cc3C#N)CC2)cc1", "growth rescue (activation)": "inactive: 4.18%"},
      {"smiles": "Cc1nn(CCOc2cccc(Br)c2)c(C)c1[N+](=O)[O-]", "Potency": "inconclusive: 11.2 µM [activator, partial curve]"},
      {"smiles": "CN(C(=O)c1cccc(Nc2ccc(-c3ccc4c(c3)OCCO4)nn2)c1)C1CCCCC1", "Potency": "inconclusive: 35.5 µM [activator, single point]"},
      {"smiles": "Cn1c2ccccc2c(=O)c2c(=O)n(-c3ccccc3)c(-c3ccc(C(C)(C)C)cc3)nc21", "Potency": "inconclusive: 11.2 µM [activator, partial curve]"},
      {"smiles": "OC1CCCN(c2c3c(nc4cc(-c5cccc(F)c5)nn24)CCCC3)C1", "note": "(centres undefined)", "Potency": "inconclusive: 12.6 µM [activator, partial curve]"},
      {"smiles": "COc1ccc(/C(O)=C2\\C(=O)C(=O)N(CCN(C)C)C2c2cc(OC)c(OC)c(OC)c2)c(C)c1", "note": "(centres undefined)", "Potency": "inconclusive: 6.31 µM [activator, single point]"},
      {"smiles": "N#C/C(=C\\c1cc(Cl)c(OCc2ccc(Cl)cc2)c(Cl)c1)C(N)=O", "Potency": "inconclusive: 15.8 µM [activator, single point]"},
      {"smiles": "c1ccc2sc(Nc3nc4cc5c(cc4s3)OCO5)nc2c1", "Potency": "active: 14.1 µM"},
      {"smiles": "C=CCn1c(=N)n(CC(=O)OCC)c2ccccc21", "growth rescue (activation)": "inactive: 2.91%"},
      {"smiles": "O=C(O)c1ccc(Nc2ccc(F)c(F)c2)c([N+](=O)[O-])c1", "Potency": "inconclusive: 25.1 µM [activator, single point]"},
      {"smiles": "CN(C)CCNC(=O)Cc1ncc(C(F)(F)F)cc1Cl", "Potency": "inconclusive: 35.5 µM [activator, single point]"},
      {"smiles": "Cc1ccc(C(C)C)c(OCCNC(=S)Nc2cccc3ccccc23)c1", "Potency": "inconclusive: 35.5 µM [activator, single point]"},
      {"smiles": "Cc1cccc(-n2c(O)c(C=Nc3ccccc3-c3n[nH]c(=S)[nH]c3=O)c3ccccc3c2=O)n1", "growth rescue (activation)": "inactive: 2.02%"},
      {"smiles": "CCCc1cc2c(=O)c(-c3ccc4c(c3)OCCO4)coc2cc1OS(C)(=O)=O", "Potency": "inconclusive: 12.6 µM [activator, partial curve]"},
      {"smiles": "O=C(COC(=O)c1ccccc1Nc1ccc(SC(F)F)cc1)NC1CC1", "Potency": "inconclusive: 10 µM [activator, partial curve]"},
      {"smiles": "CC1CC(OCC(O)CN2CCCCC2C)CC(C)(C)C1", "note": "(centres undefined)", "Potency": "inconclusive: 31.6 µM [activator, single point]"},
      {"smiles": "COc1ccc2[nH]cc(S(=O)(=O)c3ccc(C)cc3)c2c1", "Potency": "inconclusive: 31.6 µM [activator, single point]"},
      {"smiles": "CC1(C)C([N+](=O)[O-])C(c2ccc(Cl)cc2)NC(c2ccc(Cl)cc2)C1[N+](=O)[O-]", "note": "(centres undefined)", "Potency": "inconclusive: 11.2 µM [activator, partial curve]"},
      {"smiles": "CCOC(=O)c1c(C=O)c(C)n(Cc2ccc(Cl)cc2)c1C", "Potency": "inconclusive: 11.2 µM [activator, partial curve]"},
      {"smiles": "CC(C)Cc1nc(N2CCN(C(=O)C(C)C)CC2)c(C#N)c2c1CCC2", "Potency": "inconclusive: 28.2 µM [activator, single point]"},
      {"smiles": "CCOC(=O)c1c(NC(=O)c2ccccc2Cl)sc2c1CCc1ccccc1-2", "Potency": "active: 11.2 µM"},
      {"smiles": "CC(=O)Nc1ccc(S(=O)(=O)N2CCN(c3cc4c(cc3[N+](=O)[O-])n(C)c(=O)n4C)CC2)cc1", "growth rescue (activation)": "inactive: -0.0664%"},
      {"smiles": "O=C(C1CCCC1)N1CCN=C1SCc1cccc([N+](=O)[O-])c1", "Potency": "inconclusive: 25.1 µM [activator, single point]"},
      {"smiles": "CC(C)OC(=O)/C(C#N)=C/c1c[nH]c2ccccc12", "Potency": "inconclusive: 10 µM [activator, partial curve]"},
      {"smiles": "O=C(NCCc1ccc(F)cc1)C(=O)NCC1CCCN1S(=O)(=O)c1cccs1", "note": "(centres undefined)", "Potency": "inconclusive: 20 µM [activator, partial curve]"},
      {"smiles": "CCS(=O)(=O)n1nc(-c2ccccc2)nc1SCc1ccccc1", "Potency": "inconclusive: 12.6 µM [activator, single point]"},
      {"smiles": "COc1ccc(CN(C(=O)c2nsc(Cl)c2Cl)C(C(=O)NC2CCCC2)c2ccc(C)cc2)cc1", "note": "(centres undefined)", "Potency": "inconclusive: 22.4 µM [activator, single point]"},
      {"smiles": "OC1(c2cccc(C(F)(F)F)c2)CCN(c2ncnc3c2[nH]c2ccc(F)cc23)CC1", "growth rescue (activation)": "inactive: -36.1%"},
      {"smiles": "CCOC(=O)N(C)OC(=O)Nc1ccc(Cl)c(Cl)c1", "Potency": "inconclusive: 12.6 µM [activator, partial curve]"},
      {"smiles": "Clc1nnc(NN=C2CCCC2)c2ccccc12", "growth rescue (activation)": "inactive: 23.5%"},
      {"smiles": "C[C@@]12C(=O)Nc3cc(F)ccc3C(=O)N1[C@H]1c3ccccc3OC[C@@H]1[C@@H]2c1ccccc1", "Potency": "inconclusive: 12.6 µM [activator, partial curve]"},
      {"smiles": "COc1ccc2nc(C(F)(F)Cl)c(C#N)c(N)c2c1", "growth rescue (activation)": "inactive: -12.9%"},
      {"smiles": "NC(=O)c1ccccc1NC(=O)CCc1ccccc1", "growth rescue (activation)": "inactive: 2.18%"},
      {"smiles": "Cn1c(N)c(S(=O)(=O)NCc2ccc(Cl)cc2)c(=O)n(C)c1=O", "growth rescue (activation)": "inactive: 2.45%"},
      {"smiles": "COC(=O)C1=CN(c2ccc(OC)cc2)C=C(C(=O)OC)C1c1ccc(C)c([N+](=O)[O-])c1", "Potency": "inconclusive: 11.2 µM [activator, partial curve]"},
      {"smiles": "CCCCCCSc1ccc([C@@H]2[C@H]3C(=O)N(C)C(=O)[C@H]3[C@]3(C(=O)OC)CCCCN23)cc1OC", "Potency": "inconclusive: 35.5 µM [activator, single point]"},
      {"smiles": "COc1ccc(CC(=O)Nc2cc3oc4ccccc4c3cc2OC)cc1", "Potency": "inconclusive: 15.8 µM [activator, single point]"},
      {"smiles": "Cc1nnc(SCC(=O)NNC(=O)c2ccccc2)n1-c1ccccc1", "Potency": "inconclusive: 35.5 µM [activator, single point]"},
      {"smiles": "Cc1ccc2sc(N(CCCN(C)C)C(=O)c3ccc(S(=O)(=O)N4CCc5ccccc5C4)cc3)nc2c1C", "growth rescue (activation)": "inactive: -23.8%"},
      {"smiles": "CC(=O)Nc1cccc(C(=O)/C=C/c2ccc(Br)cc2)c1", "Potency": "active: 14.1 µM"},
      {"smiles": "COc1ccccc1NC(=O)C(=O)NCC(c1ccco1)N1CCc2ccccc21", "note": "(centres undefined)", "Potency": "inconclusive: 12.6 µM [activator, partial curve]"},
      {"smiles": "CCC(C)(C)NC(=O)C(c1ccc(F)cc1)N(CCOC)C(=O)CCC(=O)Nc1nccs1", "note": "(centres undefined)", "growth rescue (activation)": "inactive: 2.54%"},
      {"smiles": "O=C(Cc1ccc(Cl)cc1)N1CCN(c2ccccc2)CC1", "Potency": "inconclusive: 35.5 µM [activator, partial curve]"},
      {"smiles": "Cc1ccc(C(c2cc(Cl)c3cccnc3c2O)N2CCN(C)CC2)cc1", "note": "(centres undefined)", "Potency": "inconclusive: 3.55 µM [activator, partial curve, poor fit]"},
      {"smiles": "COc1cc(/C=C/[N+](=O)[O-])ccc1OC(=O)c1cc2ccccc2oc1=O", "growth rescue (activation)": "inactive: 1.74%"},
      {"smiles": "CC(C)n1ncc2c(C(=O)N3CCN(Cc4ccc(Br)s4)CC3)cc(C3CC3)nc21", "Potency": "inconclusive: 17.8 µM [activator, single point]"},
      {"smiles": "CC(C)CCOCC(=O)Nc1cccc(C(=O)O)c1", "Potency": "inconclusive: 31.6 µM [activator, single point]"},
      {"smiles": "COc1cc2c(cc1OC)CN(c1ccc([N+](=O)[O-])cc1Cl)CC2", "Potency": "inconclusive: 22.4 µM [activator, single point]"},
      {"smiles": "CCCCN=C1NN=C(c2ccc(C)c(C)c2)CS1", "growth rescue (activation)": "inactive: -6.79%"},
      {"smiles": "CC1CN(CCCCOc2cccc(Oc3ccccc3)c2)CC(C)O1", "note": "(centres undefined)", "Potency": "inconclusive: 6.31 µM [activator, single point]"},
      {"smiles": "COc1ccc(N2CCN(C(=O)c3ccc(CS(=O)c4cccc(C)c4)o3)CC2)cc1", "note": "(centres undefined)", "growth rescue (activation)": "inactive: 3.64%"},
      {"smiles": "CCc1ccc(C(=O)NC(=S)Nc2ccc(N3CCOCC3)cc2)cc1", "growth rescue (activation)": "inactive: 0.48%"},
      {"smiles": "CC1=NN(c2cccc(C(=O)O)c2)C(=O)/C1=C\\C=C/c1ccccc1", "growth rescue (activation)": "inactive: 3.48%"},
      {"smiles": "Cn1ccnc1C1CCCCN1Cc1nc(-c2ccc(Cl)cc2)no1", "note": "(centres undefined)", "Potency": "inconclusive: 31.6 µM [activator, single point]"},
      {"smiles": "Cc1nc(NC(=O)c2ccco2)sc1-c1csc(Nc2ccc(Cl)cc2Cl)n1", "growth rescue (activation)": "inactive: 12.7%"},
      {"smiles": "CC(C)C(C)NC(=O)COc1ccc(OCc2ccccc2)cc1", "note": "(centres undefined)", "Potency": "inconclusive: 35.5 µM [activator, single point]"},
      {"smiles": "CC(C)C(=O)N1CCN(c2ccc([N+](=O)[O-])c(NC(C)c3ccccc3)c2)CC1", "note": "(centres undefined)", "Potency": "inconclusive: 12.6 µM [activator, partial curve]"},
      {"smiles": "Cc1ccc(C(=O)c2cc([N+](=O)[O-])ccc2N2CCOCC2)cc1C", "growth rescue (activation)": "inactive: -0.727%"},
      {"smiles": "O=C(O)C1C2C=CC(O2)C1C(=O)NCc1ccc(Cl)cc1", "note": "(centres undefined)", "growth rescue (activation)": "inactive: -3.94%"}
    ]}
  ]
}
